This note sets out measurements from PubChem BioAssay AID1487 (National Center for Advancing Translational Sciences (NCATS), 2009).

The list shows a part of the results. Shown are side measurements of this screen, not its main read-out; they come without a call. Compounds called inactive in the main read-out are mostly missing here. Potencies come from curve fits of mixed quality, noted in brackets.

The nature of this experiment: qHTS Assay for Modulators of Lamin A Splicing. The following applies: HeLa LMNA splicing GFP/RFP minigene ratio, 48 h. An outline of the steps: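 S3 HeLa stable clones carrying a lamin A-EGFP splicing minigene plus DsRed2 were seeded at 600 cells/well in Opti-MEM with 2% FBS, pin-dosed and incubated 48 h at 37°C. Acumen cytometry (488 nm) gave the GFP/RFP total-intensity ratio.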
A general note: Quantitative high-throughput screening tests each substance at several concentrations.

Setting [1] is: measured here: RFP viability control channel.
The mark [2] stands for this setting: measured here: GFP splicing reporter channel.

For orientation: AC50 means the concentration at which the activity in the assay is half-maximal. On to `O=C(c1ccccc1)N1CCN(Cc2cccc(Oc3ccccc3)c2)CC1`, for which the AC50 under setting [1] is 17.8 µM [rising, single point].

As to `O=C(c1cc(C(=O)NCCc2ccccc2)c(=O)n(CCc2ccccc2)c1)c1cc(Cl)ccc1O`, the AC50 under setting [1] was 11.2 µM [rising, partial curve].

In the case of `C=CCn1cc(C(=O)NCc2ccc(Cl)cc2)c(=O)c2cc(S(=O)(=O)N(CC)CC)ccc21`, the AC50 under setting [1] is 12.6 µM [rising, single point].

With `O=C(/C=C/c1cccc(F)c1)Nc1cc(S(=O)(=O)N2CCOCC2)ccc1N1CCCC1`, the half-maximal activity concentration (AC50) under setting [1] is 0.355 µM [rising, full curve, poor fit].

For the compound `COc1ccc(S(=O)(=O)N2CCC(C(=O)N3CCc4ccccc4C3)CC2)cc1OC`, the AC50 under setting [2] was 11.2 µM [rising, partial curve].

Take `S=c1[nH]nc(C2CCCCC2)n1/N=C/c1ccc(Br)s1`: the half-maximal activity concentration (AC50) is 25.1 µM [falling, single point] under setting [2] and 28.2 µM [falling, single point] under setting [1].

As to `Cc1ccc(CN2CCc3nc(N4CCN(C)CC4)ncc3C2)cc1`, the AC50 is 4.47 µM [falling, full curve] under setting [2] and 1.78 µM [falling, full curve, poor fit] under setting [1].

For the compound `COc1ccc(C(=O)Nn2c(SCC(=O)NC3CCCC3)nc3ccccc3c2=O)cc1`, under setting [1], the AC50 was 6.31 µM [rising, single point].

In the case of `COCCn1c(SCC(=O)Nc2sccc2C(N)=O)nc2cc(Cl)ccc2c1=O`, the AC50 under setting [2] is 8.91 µM [rising, partial curve] and the AC50 under setting [1] is 11.2 µM [rising, partial curve].

Consider `COc1ccc(C(=O)N2CCC(c3ccncc3)CC2)cc1OC`, for which the half-maximal activity concentration (AC50) is 6.31 µM [falling, single point] under setting [2] and 6.31 µM [falling, single point] under setting [1].

As to `Cc1oc2c(O)c(O)ccc2c(=O)c1-c1ccccc1`, the concentration at half-maximal activity (AC50) under setting [2] is 3.16 µM [falling, single point].

Consider `CC(Nc1nc(-c2ccc3c(c2)NC(=O)CO3)cs1)c1ccccc1` (stereo not drawn), for which the AC50 under setting [2] was 35.5 µM [falling, single point] and the AC50 under setting [1] is 35.5 µM [falling, single point].

For `COc1cc(OC)cc(C(=O)OCc2ccc([N+](=O)[O-])cc2)c1`, the AC50 under setting [2] was 0.0447 µM [rising, full curve, poor fit].

`CSC1=C(C#N)C(c2ccccc2Cl)C(C(=O)c2cccs2)C(O)(C(F)(F)F)N1` (stereo not drawn): the half-maximal activity concentration (AC50) is, setting by setting: under setting [2], 12.6 µM [rising, single point]; under setting [1], 17.8 µM [rising, single point].

Consider `CCOc1ccc(S(=O)(=O)N(CC(=O)Nc2cc(C)on2)Cc2ccccc2Cl)cc1`, for which the AC50 is 35.5 µM [rising, single point] under setting [2] and 28.2 µM [rising, single point] under setting [1].

In the case of `N#C/C(=C\c1ccc2c(c1)OCCO2)C(=O)NC1CCCCC1`, the AC50 under setting [1] is 35.5 µM [rising, single point].

As to `CCOc1ccc(OCC)c(NC(=O)CSc2nnc(-c3cccnc3)o2)c1`, the half-maximal activity concentration (AC50) runs as follows: under setting [2], 35.5 µM [falling, single point]; under setting [1], 12.6 µM [falling, partial curve, poor fit].

Consider `CCNC(=S)Nc1ccc(Cl)c(C(F)(F)F)c1`, for which the AC50 under setting [1] is 35.5 µM [rising, single point].

`Cc1ccccc1NCC(=O)N/N=C\C=C\c1cccc([N+](=O)[O-])c1`: the half-maximal activity concentration (AC50) under setting [2] was 11.2 µM [falling, partial curve, poor fit] and the concentration at half-maximal activity (AC50) under setting [1] was 7.08 µM [falling, partial curve, poor fit].

Consider `CCc1ccc(OC(C)c2nnc(SCC(=O)Nc3ncccc3C)n2C)cc1` (stereo not drawn), for which the AC50 under setting [2] was 12.6 µM [rising, single point] and the concentration at half-maximal activity (AC50) under setting [1] was 14.1 µM [rising, single point].

As to `C=C(C)C1(O)OC(=O)C=C1OC` (stereo not drawn), the half-maximal activity concentration (AC50) runs as follows: under setting [2], 11.2 µM [falling, partial curve]; under setting [1], 8.91 µM [falling, single point].

With `COc1ccc(NC(=O)C(=O)NCCc2csc(-c3ccc(Cl)cc3)n2)cc1`, the half-maximal activity concentration (AC50) under setting [1] was 15.8 µM [rising, single point].

With `CC(=O)N[C@@H](Cc1c[nH]c2ccccc12)C(=O)OCc1cc(C(F)(F)F)cc(C(F)(F)F)c1`, the AC50 reads like this: under setting [2], 5.62 µM [falling, partial curve, poor fit]; under setting [1], 5.62 µM [falling, single point].

Turning to `FC(F)Sc1ccc(-n2cc(-c3ccccc3)[n+]3c2CCC3)cc1`, the AC50 under setting [1] is 35.5 µM [rising, single point].

`C=CCOC(=O)N1CCN(c2cccc(C(F)(F)F)c2)CC1`: the AC50 is, setting by setting: under setting [2], 3.16 µM [falling, single point]; under setting [1], 3.55 µM [falling, single point].

`CCCOc1ccc(Nc2nc(SC)ncc2C(=O)OCC)cc1`: the AC50 under setting [2] was 3.98 µM [rising, partial curve, poor fit] and the half-maximal activity concentration (AC50) under setting [1] is 17.8 µM [rising, partial curve, poor fit].

As to `N#CC1=C(SCc2ccccc2)NC(=O)C(C#N)C12CCCC2` (stereo not drawn), the concentration at half-maximal activity (AC50) runs as follows: under setting [2], 1 µM [rising, full curve]; under setting [1], 5.62 µM [rising, partial curve].

`O=c1[nH]c(Cc2ccc(F)cc2)nc2scc(-c3ccc(F)cc3)c12`: the AC50 runs as follows: under setting [2], 4.47 µM [rising, full curve, poor fit]; under setting [1], 11.2 µM [rising, partial curve, poor fit].

As for `Cc1nc2ccccc2n1CSc1ccccc1`, the AC50 is, setting by setting: under setting [2], 7.08 µM [rising, partial curve]; under setting [1], 11.2 µM [rising, partial curve].

In the case of `Cc1cc(NC(=O)CS(=O)(=O)c2cn(Cc3ccccc3Cl)c3ccccc23)no1`, the AC50 under setting [1] is 14.1 µM [rising, partial curve].

With `Oc1cccc2ccc(Nc3ccccn3)nc12`, the AC50 runs as follows: under setting [2], 14.1 µM [falling, partial curve]; under setting [1], 35.5 µM [falling, single point].

For the compound `CCOC(=O)c1c(-c2ccccc2)csc1/N=C/C1C(=O)CCCC1=O`, the AC50 under setting [2] was 2 µM [rising, partial curve, poor fit].

For the compound `COc1ccc(C2=C(Nc3ccc(F)cc3)c3ccccc3C2=O)cc1`, the concentration at half-maximal activity (AC50) under setting [2] was 35.5 µM [falling, single point].

Regarding `COCc1ccc(C(=O)NC(C)c2cnn(-c3ccccc3C)c2C)o1` (stereo not drawn), the half-maximal activity concentration (AC50) under setting [2] is 0.501 µM [falling, partial curve, poor fit].

With `CS(=O)(=O)N1CCN(c2ccc(NC(=S)NC(=O)c3cccs3)cc2)CC1`, the AC50 under setting [2] is 0.891 µM [falling, full curve, poor fit].

On to `CCOc1ccc(CCNC(=O)c2ccc(CS(=O)(=O)Cc3ccccc3Cl)o2)cc1OCC`, for which, under setting [2], the half-maximal activity concentration (AC50) was 11.2 µM [falling, partial curve, poor fit].

With `Cc1ccccc1CN1CCc2nc(Nc3ccc4c(c3)OCCO4)ncc2C1`, under setting [1], the AC50 was 5.62 µM [rising, partial curve, poor fit].

On to `Cc1ccc(S(=O)(=O)Nc2cc(C(=O)Nc3cc(C)cc(C)c3)ccc2Cl)cc1`, for which the AC50 under setting [2] is 11.2 µM [rising, partial curve] and the half-maximal activity concentration (AC50) under setting [1] is 28.2 µM [rising, single point].

Consider `CCCC(=O)c1ccc(N2CCN(S(=O)(=O)c3ccccc3)CC2)c(F)c1`, for which the AC50 under setting [2] is 31.6 µM [rising, single point] and the AC50 under setting [1] is 22.4 µM [rising, single point].

`O=C(CCSCCc1ccccn1)Nc1ccc(Cc2ccncc2)cc1`: the AC50 under setting [1] is 0.282 µM [rising, full curve, poor fit].

On to `Cc1cc(C(F)F)nn1CC(=O)Nc1cc([N+](=O)[O-])ccc1F`, for which, under setting [2], the AC50 is 7.94 µM [rising, partial curve, poor fit].

On to `CCCCOc1ccc(-c2cc(C(=O)NNC(=S)NCC)c3ccccc3n2)cc1`, for which, under setting [1], the half-maximal activity concentration (AC50) was 11.2 µM [falling, partial curve, poor fit].

As for `O=C(NN=C1CCCC1)c1cc(-c2ccc(F)cc2)nc2ccccc12`, the AC50 under setting [1] is 0.0794 µM [falling, full curve, poor fit].

For the compound `CC(NC(=O)CCn1c(=O)c2cccn2c2ccc(F)cc21)c1ccccc1` (stereo not drawn), the AC50 under setting [2] was 0.0282 µM [rising, full curve, poor fit].

For `COc1ccc(-c2oc(NC(=O)CSc3ncn[nH]3)c(C#N)c2-c2ccc(OC)cc2)cc1`, the AC50 under setting [2] is 31.6 µM [falling, single point] and the half-maximal activity concentration (AC50) under setting [1] was 35.5 µM [falling, single point].

As to `Cc1noc(C)c1COc1cccc(C(=O)NCc2ccccc2Cl)c1`, under setting [1], the half-maximal activity concentration (AC50) was 12.6 µM [rising, single point].

As for `CCN(CC)CCNC(=O)C1CCN(S(=O)(=O)c2c(C)noc2/C=C/c2ccccc2F)CC1`, the AC50 is 35.5 µM [rising, single point] under setting [2] and 35.5 µM [rising, single point] under setting [1].

Consider `CCN(CC)c1ccc2cc(-c3nnc(-c4ccncc4)o3)c(=O)oc2c1`, for which the half-maximal activity concentration (AC50) under setting [1] was 7.08 µM [falling, partial curve, poor fit].

`CCC/C=N/NC(=O)c1[nH]c2c([N+](=O)[O-])cccc2c1C`: the AC50 under setting [1] was 3.16 µM [rising, partial curve].

With `O=C(Cc1cccs1)NC1CC(=O)N(c2ccccc2)C1` (stereo not drawn), under setting [2], the half-maximal activity concentration (AC50) was 0.158 µM [falling, full curve, poor fit].

`O=C(Cc1ccccc1F)Nc1ccc(SC(F)F)cc1`: the AC50 under setting [2] is 11.2 µM [rising, single point] and the half-maximal activity concentration (AC50) under setting [1] was 35.5 µM [rising, single point].

As for `Cc1sc(NC(=O)C2C3CCC(C3)C2C(=O)O)c(C(N)=O)c1-c1ccc(C(C)(C)C)cc1` (stereo not drawn), the concentration at half-maximal activity (AC50) was 14.1 µM [rising, partial curve] under setting [2] and 22.4 µM [rising, single point] under setting [1].

For `COc1ccc(C(c2nnnn2Cc2ccccc2)N2CCN(c3nc4ccccc4s3)CC2)cc1OC` (stereo not drawn), the AC50 is 35.5 µM [rising, single point] under setting [2] and 22.4 µM [rising, single point] under setting [1].
